PubChem BioAssay AID504784 – Drosophila RNAi Screening Center, 2011
The screen tested about 17,000 reagents; shown is an unselected part of those with a known target gene and a result. 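Each column is one replicate's B-score; the combined score over replicates was not deposited, so single values may mislead.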 A plus sign joins genes that one reagent is predicted to hit. Not all columns of the deposit are shown. No sequences are given here.

Aim: 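Genome-wide knock-down for genes giving too much or too little stored lipid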 (primary screen)
Cells: Drosophila Kc167 embryonic cells
Reagent: long dsRNA against Drosophila genes, about 250 ng dsRNA per well
Timing: 4 days
Challenge: cells fed 400 µM oleic acid bound to BSA
Read-out: 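Cells imaged and segmented; ratio of lipid droplet area to nuclear area, log-transformed, then normalised as a B-score over the screen; higher means more stored lipid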
Direction: droplet/nuclear area B-score: higher = more stored lipid (overstorage)

The first 11 entries, to show the layout:
no.	target	dsRNA	droplet/nuclear area B-score, replicate 1
1	Nepl9	DRSC02255	1.58
2	CSN7	DRSC06807	-0.398
3	CSN7	DRSC06808	-0.766
4	CG33477	DRSC22934	-1.49
5	CG17186	DRSC15180	-1.7
6	mthl15	DRSC01120	1.26
7	CG43322	DRSC02280	0.257
8	CG14500	DRSC06471	-0.662
9	bowl	DRSC00805	3.67
10	CG14314	DRSC14793	-0.596
11	CG5541	DRSC19946	0.0935

The listing, from the start:
no.	target	dsRNA	droplet/nuclear area B-score, replicate 1
1	Nepl9	DRSC02255	1.58
2	CSN7	DRSC06807	-0.398
3	CSN7	DRSC06808	-0.766
4	CG33477	DRSC22934	-1.49
5	CG17186	DRSC15180	-1.7
6	mthl15	DRSC01120	1.26
7	CG43322	DRSC02280	0.257
8	CG14500	DRSC06471	-0.662
9	bowl	DRSC00805	3.67
10	CG14314	DRSC14793	-0.596
11	CG5541	DRSC19946	0.0935
12	ECSIT	DRSC12348	-0.852
13	CG3769	DRSC02723	-2.2
14	CG9970	DRSC08644	-0.0594
15	CG32409	DRSC08780	-0.271
16	CR31032	DRSC22457	0.707
17	melt	DRSC11367	0.241
18	CG2818	DRSC00540	-0.424
19	EbpIII	DRSC04638	0.00809
20	NimC3	DRSC03556	-0.542
21	NimC3	DRSC22528	-0.687
22	Vmat + CG13330	DRSC06365	-0.413
23	CG31464	DRSC14345	-1.92
24	CG4716	DRSC06884	0.389
25	Orcokinin	DRSC04202	-0.0883
26	CG8679	DRSC03109	-0.924
27	sloth2 + sloth1	DRSC17922	-0.423
28	sloth2 + sloth1	DRSC17923	-0.000378
29	Tfb4	DRSC00675	-0.105
30	CG4198	DRSC18354	0.125
31	CG15120	DRSC06542	-1.97
32	PH4alphaEFB	DRSC14473	-1.36
33	PH4alphaEFB	DRSC14950	-1.97
34	CG6567 + CG4565	DRSC15599	0.948
35	wash	DRSC06302	-0.179
36	CG6769	DRSC20006	0.221
37	Srr	DRSC16382	2.25
38	CG34169	DRSC01579	1
39	CG34175	DRSC00424	-1.41
40	CG11656	DRSC14338	0.927
41	CG14071	DRSC02374	0.511
42	sa	DRSC11649	-0.00649
43	Dlip3	DRSC07401	0.452
44	cv-d	DRSC16522	-1.55
45	cv-d	DRSC16524	0.44
46	cv-d	DRSC16526	-1.32
47	drongo	DRSC00814	-1.62
48	ced-6	DRSC07591	0
49	Dtwd2	DRSC12501	-1.24
50	CG6333	DRSC10626	-0.335
51	yellow-d	DRSC04589	-0.0678
52	Patr-1	DRSC14159	2.63
53	sr	DRSC13284	-0.583
54	sr	DRSC17067	0.583
55	mRpS10	DRSC15557	-0.037
56	CG12375	DRSC02163	-0.83
57	Osi21	DRSC02408	-0.319
58	CG6503	DRSC16056	1.1
59	Apt1	DRSC10348	0.722
60	Pk34A	DRSC03398	-0.989
61	CG11369	DRSC17779	-0.591
62	Jasper	DRSC16352	-1.68
63	MTF-1	DRSC11217	0.0252
64	MTF-1	DRSC21341	0.493
65	Rbfox1	DRSC09034	0.595
66	Rbfox1	DRSC10157	-3.44
67	Rbfox1	DRSC10320	-0.448
68	Rbfox1	DRSC21378	0.0276
69	Rbfox1	DRSC22992	0.042
70	Su(z)2	DRSC07558	-0.0242
71	Su(z)2	DRSC22970	-2.31
72	CG9410 + CG15908	DRSC04976	2.32
73	CG9410 + CG15908	DRSC05001	-0.382
74	CG7126	DRSC16201	-0.161
75	CG31921	DRSC00013	1.07
76	Jon99Cii	DRSC16858	-2.23
77	Jon99Cii	DRSC22574	-1.24
78	Tsp42Eq	DRSC06180	-0.996
79	Obp93a	DRSC15220	-0.904
80	CG9168	DRSC08633	0.57
81	Pgk	DRSC00769	1.23
82	Pgk	DRSC23340	1
83	CG34253	DRSC09531	0.0048
84	CG13308	DRSC09979	-0.844
85	Rab40	DRSC19820	-0.054
86	Tret1-2	DRSC07117	-0.49
87	S-Lap7	DRSC06374	-0.488
88	CG4596	DRSC15608	-0.645
89	Chsy	DRSC20175	1.93
90	Chsy	DRSC20176	-2.79
91	bark	DRSC00635	-0.193
92	Or2a	DRSC18690	-0.259
93	JMJD4	DRSC03025	0.215
94	BoYb	DRSC11637	0.553
95	CG7632	DRSC11842	1.28
96	CG13287	DRSC09961	-1.52
97	CG13924	DRSC08393	-1.13
98	CG32833	DRSC04596	0.674
99	RAF2	DRSC10443	0.232
100	RAF2	DRSC10454	-1.33
101	CG33937 (retired record)	DRSC15148	-0.876
102	elav	DRSC18772	-0.223
103	wde	DRSC05955	-0.00377
104	p53	DRSC17024	0.0396
105	t-Grip84	DRSC10904	-0.692
